Assay results from the supplement of paper PMC4862054.
Small differences around the control level are noise.

What was measured:
Assay in all cases: normalised response (% of control), CellTox Green; higher = less cell death (100 = DMSO, 0 = benzethonium chloride kill control)
Details in all cases: incubation time: 72 h
[1] = system: MDA-MB-436
Procedure: (§1)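 DSRT, 72 h incubation, CellTox Green / CellTiter-Glo readout. Signal is normalised to DMSO and benzethonium chloride controls. Value is the normalised response at dose 2.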

[2] = system: DU-4475
Procedure: as §1

[3] = system: HCC1143
Procedure: as §1

[4] = system: HCC1937
Procedure: as §1

[5] = system: MCF-10A
Procedure: as §1

[6] = system: CAL-85-1
Procedure: as §1

[7] = system: MDA-MB-453
Procedure: as §1

[8] = system: BT-549
Procedure: as §1

[9] = system: CAL-120
Procedure: as §1

[10] = system: CAL-148
Procedure: as §1

[11] = system: MDA-MB-231
Procedure: as §1

[12] = system: Hs578T
Procedure: as §1

[13] = system: MFM-223
Procedure: as §1

[14] = system: MDA-MB-468
Procedure: as §1

[15] = system: CAL-51
Procedure: as §1

[16] = system: HDQ-P1
Procedure: as §1

[17] = system: HCC1599
Procedure: as §1

[18] = system: BT-474
Procedure: as §1

Row | SMILES | normalised response [1] | normalised response [2] | normalised response [3] | normalised response [4] | normalised response [5] | normalised response [6] | normalised response [7] | normalised response [8] | normalised response [9] | normalised response [10] | normalised response [11] | normalised response [12] | normalised response [13] | normalised response [14] | normalised response [15] | normalised response [16] | normalised response [17] | normalised response [18]
1 | CC(C)n1cnc2c(NCCc3ccc(O)cc3)nc(-c3csc4ccccc34)nc21 [StemRegenin 1] (10 nM) | 94.6% | 97.3% | 106% | 60.1% | 99.9% | 101% | 101% | 106% | 96.5% | 107% | 122% | 118% | 97.7% | 105% | 99.4% | 119% | 105% | 
3 | O=P1(N(CCCl)CCCl)NCCCO1 (stereo unspecified) [Cyclophosphamide] (40 nM) | 99.7% | 97.8% | 93.5% | 107% | 96.8% | 102% | 95.9% | 101% | 101% | 105% | 112% | 111% | 99.7% | 103% | 100% | 57% | 96.9% | 
4 | COc1cc2/c(=N/c3ccc(Br)cc3F)nc[nH]c2cc1OCC1CCN(C)CC1 [Vandetanib] (1 nM) | 79.4% | 91% | 93.7% | 83.2% | 79% | 97.1% | 74.6% | 56% | 94.4% | 97.3% | 91.4% |  | 93.2% |  | 91.3% | 110% | 91.6% | 95.3%
5 | Cn1cnc2c(F)c(Nc3ccc(Br)cc3Cl)c(C(=O)NOCCO)cc21 [Selumetinib] (10 nM) | 57.5% | 94.4% | 76.5% |  | 102% | 100% | 95.4% | 101% | 97% | 54.1% | 87.1% | 75.7% |  | 83.9% | 96% | 110% | 76.4% | 92.9%
7 | CN(c1ccccc1CNc1nc(Nc2ccc3c(c2)CC(=O)N3)ncc1C(F)(F)F)S(C)(=O)=O (10 nM) | 85.3% | 94.7% | 91.5% | 99.3% | 100% | 95.1% | 91.9% | 103% | 100% | 105% | 94.6% | 108% | 99.1% | 115% | 96.4% |  | 96.1% | 98.9%
8 | COc1cccc2cc(-c3nc([C@H]4CC[C@H](C(=O)O)CC4)n4ncnc(N)c34)[nH]c12 [OSI-027] (10 nM) | 110% | 102% | 104% |  | 101% | 96.5% | 108% | 95.6% | 99.7% | 57% | 98% | 120% | 90.9% | 67.6% | 63.2% | 109% | 105% | 100%
9 | Cc1ccc(-c2cc(C(F)(F)F)nn2-c2ccc(S(N)(=O)=O)cc2)cc1 [Celecoxib] (10 nM) | 73.8% | 95.9% | 99.6% |  | 97.2% | 104% | 98.2% | 71.5% | 102% | 105% | 104% | 112% | 99.4% | 76.8% | 106% | 115% | 90% | 101%
10 | COc1cccc2c1C(=O)c1c(O)c3c(c(O)c1C2=O)C[C@@](O)(C(C)=O)C[C@@H]3O[C@H]1C[C@H](N)[C@H](O)[C@H](C)O1 [Daunorubicin] (1 nM) |  | 99.1% | 117% | 115% | 87.1% | 103% | 96.5% | 95.7% | 102% | 106% | 111% | 53.5% | 97.5% | 82% | 105% | 111% | 99.7% | 103%
11 | Nc1nc2[nH]cc(CCc3ccc(C(=O)N[C@@H](CCC(=O)O)C(=O)O)cc3)c2c(=O)[nH]1 [Pemetrexed] (10 nM) | 104% | 95.3% | 95.1% | 104% |  | 93.4% | 84.1% | 91.7% | 98.8% | 97.8% | 96.6% | 119% | 99.3% | 63.2% | 86.2% | 96.2% | 104% | 101%
12 | O=C(O)C1(C(=O)O)CCC1.[NH2-].[NH2-].[Pt+2] [Carboplatin] (10 nM) | 62.9% | 96.9% | 109% |  | 102% | 98.6% | 103% | 100% | 98.7% | 103% | 112% | 129% | 91.3% | 143% | 94% | 111% | 102% | 105%
